Test results as given in patent publication US7514432B2, “Compounds and methods of treating cell proliferative diseases, retinopathies and arthritis” (Exonhit Therapeutics SA, priority 2003, dated 2009).
Some entries share one result that the patent states for a list of compounds.

What was measured:
HMEC1 = test: Cell viability assay (MTT), HMEC1; format: cell-based, Human; conditions: 10% FBS, 6-day treatment, 1% DMSO
Experimental: (§1) Table 12: 6-day cell viability assay (MTT) in the presence of 10% Fetal Bovine Serum and 1% DMSO, in HMEC1, HCT116, MDA-MB-231, MCF7 and NIH3T3 cell lines. 3 10^3 to 15 10^3 cells were seeded in 48-well plates in growth medium containing 10% FBS, with or without various concentrations of test compounds. Cell cultures were fed every 3 days with the appropriate media. Cell viability was determined on day 6. Data were analyzed and IC50s were calculated from dose-response curves using GraphPad Prism. Results summarized in the tables are mean±SEM of 1 to 8 independent experiments.
In order to determine a compound's effect on cell viability, microculture tetrazolium assays (MTT) were performed as described by Carmichael et al. (1996) with modifications. Four human tumoral cell lines, namely HCT116 colon adenocarcinoma, H460 lung carcinoma, MCF-7 and MDA-MB-231 breast carcinoma cell lines, DLD1 colorectal adenocarcinoma, HeLa adenocarcinoma, HepG2 hepatocellular carcinoma. 3 immortalized but non tumorigenic cell lines, namely NIH3T3 mouse fibroblasts (American Type Culture Collection) and primary hepatocytes (Biopredic international), cultured according to their recommendations together with Human Microvasculature Endothelial Cell line HMEC1 (National Center for Infectious Diseases). […] Absorbance was measured using a spectrophotometer at a wavelength of 550 nm. […]

MDA-MB-231 = test: Cell viability assay (MTT), MDA-MB-231; format: cell-based, human; conditions: 10% FBS, 6-day treatment, 1% DMSO, trihydrochloride
Experimental: as §1
Table 13: 6-day cell viability assay (MTT) in the presence of 0.5% Fetal Bovine Serum and 1% DMSO, in HCT116 and MDA-MB-231 cell lines. […] Cell viability was determined on day 6. Data were analyzed and IC50s were calculated from dose-response curves using GraphPad Prism. […]
Table 14: 3-day cell viability assay (MTT) in the presence of 10% Fetal Bovine Serum and 1% DMSO, in DLD1, HCT116, MDA-MB-231, MCF7 and HeLa cells. […] Data were analyzed and IC50s were calculated from dose-response curves using GraphPad Prism. […]
Table 15: 16-hour cell viability assay (MTT) in the presence of 10% Fetal Bovine Serum and 1% DMSO, in HCT116, MDA-MB-231, NIH3T3, HepG2 and primary hepatocytes. […] Data were analyzed and IC50s were calculated from dose-reponse curves using GraphPad Prism. […]

CN1CCN(Cc2cc(=O)c(OCCCCCSc3ccnc4cc(C(F)(F)F)ccc34)co2)CC1 [EHT 7365, 2-(4-Methyl-piperazin-1-ylmethyl)-5-[5-(7-trifluoromethyl-quinolin-4-ylsulfanyl)-pentyloxy]-4H-pyran-4-one]
IC50 (HMEC1): < 10 µM

CN1CCN(Cc2cc(=O)c(OCCCCCSc3ccnc4cc(C(F)(F)F)ccc34)co2)CC1.Cl.Cl.Cl [EHT 9241, 5-(5-(7-(Trifluoromethyl)quinolin-4-ylthio)pentyloxy)-2-((4-methylpiperazin-1-yl)methyl)-4H-pyran-4-one trihydrochloride]
IC50 (MDA-MB-231): < 9 µM
